Test results taken from PubChem BioAssay AID493014 (National Center for Advancing Translational Sciences (NCATS), 2011).
Some of the results follow. The main result of the screen is listed elsewhere. These columns were measured beside it and carry no call. Compounds called inactive in the main read-out are mostly missing here. Potencies come from curve fits of mixed quality, noted in brackets.

Assay: qHTS Assay to Find Inhibitors of Chronic Active B-Cell Receptor Signaling
Conditions: ABC-DLBCL IkBa-CBG/CBR reporter, luminescence ratio (green luciferase fused to IkBa over red control in TMD8 lymphoma cells), 4 h
How it was run: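 TMD8 ABC-DLBCL cells carrying doxycycline-inducible green luciferase fused to IkappaBalpha plus unfused red luciferase were exposed to compounds (up to 46 uM) for 4 hrs at 37C. Activity came from the overlap-corrected green/red luminescence ratio.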

[1] = measured here: CBR red luminescence, cell number
[2] = measured here: IkBa-CBG green luminescence

Row | SMILES | AC50 [1] | AC50 [2]
1 | COc1cc(/C=C2\SC(=S)N(NC(=O)c3ccncc3)C2=O)ccc1O | 35.5 µM [rising, single point] | 
2 | C[C@H](NC(=O)[C@@H]1Cc2ccccc2CN1C(=O)OC(C)(C)C)C(=O)NC1CCCCC1 | 22.4 µM [falling, single point] | 
3 | CCc1cc2ccc(OC)cc2nc1SCC(=O)NNC(C)=O | 15.8 µM [rising, partial curve, poor fit] | 
4 | COc1ccc(/C=[N+](\[O-])C2N(c3ccccc3)C(=S)SC2(C)C)cc1OC (configuration not stated) | 5.01 µM [rising, partial curve] | 
5 | O=C(N/N=C/C=C/c1ccco1)c1ccncc1 | 35.5 µM [falling, single point] | 
6 | COc1ccc2nc(NC(=O)c3ccccc3[N+](=O)[O-])sc2c1 | 2.82 µM [falling, full curve] | 
7 | COC(=O)c1ccc(COC(=O)C23CC4CC(CC(O)(C4)C2)C3)o1 | 0.1 µM [rising, full curve, poor fit] | 
8 | CCn1cc(C(=O)N2CCc3ccccc32)c(=O)c2cc(S(=O)(=O)N(C)C3CCCCC3)ccc21 | 25.9 µM [rising, single point] | 
9 | COc1nc(-c2ccccc2)nnc1-c1ccccc1 | 1.26 µM [falling, full curve, poor fit] | 
10 | COc1ccc(S(=O)(=O)N(Cc2cccs2)C2CCCC2)cc1 | 6.51 µM [rising, single point] | 
11 | CCOC(=O)c1cc(NC(=O)CC(C)(C)CC(=O)O)ccc1N1CCCCC1 | 17.8 µM [rising, partial curve, poor fit] | 
12 | Cc1cccc(-c2noc(CNC(=O)c3ccoc3C)n2)c1 | 10 µM [rising, partial curve, poor fit] | 
13 | Cc1cc(C)nc(SCc2nnc(SCc3ccccc3Cl)o2)n1 | 1.64 µM [rising, full curve, poor fit] | 
14 | Cc1ccc(S(=O)(=O)N2CCC(=O)N(C(COCc3ccccc3)Cc3ccccc3)CC2)cc1 (configuration not stated) | 14.6 µM [rising, partial curve, poor fit] | 
15 | COc1ccc(NC(=O)c2ccc3nccnc3c2)cc1 | 14.6 µM [falling, partial curve, poor fit] | 
16 | CCC(NC(=O)c1ccccc1NC(=O)c1ccc(C)cc1)C(=O)O (configuration not stated) | 23.1 µM [falling, partial curve, poor fit] | 
17 | Cn1c(SCC(=O)Nc2cccc(S(=O)(=O)N3CCOCC3)c2)nnc1-c1ccncc1 | 25.1 µM [rising, single point] | 
18 | Cc1c(Cl)cccc1NC(=S)N(Cc1cccnc1)Cc1ccccc1Cl | 12.6 µM [falling, single point] | 
19 | CCOc1cc(/C=N/OC(C)=O)ccc1OCc1ccccc1 | 0.1 µM [rising, full curve, poor fit] | 
20 | O=C(Nc1nc(-c2cccs2)cs1)C1=COCCO1 | 14.6 µM [falling, single point] | 
21 | COc1ccc(NC(=O)c2ccc(NCCCN3CCOCC3)c([N+](=O)[O-])c2)cc1 | 6.51 µM [falling, partial curve, poor fit] | 

Row | SMILES | AC50 [1] | AC50 [2]
22 | CCOC(=O)c1sc(N)nc1-c1ccccc1 | 0.164 µM [falling, partial curve, poor fit] | 
23 | COc1cc(NC(=O)C2CCN(c3cnccn3)CC2)cc(OC)c1OC | 12.6 µM [falling, partial curve, poor fit] | 
24 | O=C(Cn1c(=O)oc2ccccc21)NCCc1ccccc1 | 35.5 µM [falling, single point] | 
25 | CC(C)CCNC(=O)CCCOc1ccccc1 | 11.6 µM [rising, partial curve] | 
26 | O=C(CCCOc1ccc(Cl)cc1)NCC1CCCO1 (configuration not stated) |  | 35.5 µM [rising, partial curve, poor fit]
27 | Cc1nc(SCc2nc3ccccc3[nH]2)c2oc3cc(Br)ccc3c2n1 | 25.9 µM [falling, single point] | 
28 | CCc1nnc(SCC(=O)Nc2ccc(N3CCOCC3)cc2)o1 | 6.51 µM [falling, single point] | 
29 | O=C(O)c1ccc(CSCc2ccccc2F)o1 | 0.184 µM [rising, full curve, poor fit] | 
30 | COC(=O)c1sccc1NC(=O)C1CC=CCC1C(=O)O (configuration not stated) | 5.8 µM [falling, partial curve, poor fit] | 
31 | O=C(N/N=C/c1ccc(O)c([N+](=O)[O-])c1)C1CC1(c1ccccc1)c1ccccc1 (configuration not stated) | 4.47 µM [falling, full curve, poor fit] | 
32 | CC(OC(=O)CNC(=O)COc1ccccc1)C(=O)N(C)Cc1ccccc1 (configuration not stated) | 18.4 µM [rising, single point] | 
33 | CC(=O)NCCn1c(SCc2ccccc2C)nc2ccccc2c1=O | 35.5 µM [falling, single point] | 
34 | O=C(NNC(=O)c1ccccc1F)c1cccc(Cl)c1 | 10 µM [falling, partial curve] | 
35 | Cc1ccc(/C=C\c2nccc3c2[nH]c2ccccc23)cc1 | 10 µM [falling, partial curve, poor fit] | 
36 | CCOc1cc(N2CCOCC2)c(OCC)cc1NC(=O)c1cnccn1 | 9.2 µM [rising, partial curve] | 10.3 µM [falling, partial curve, poor fit]
37 | O=C(CCC(=O)N1CCN(S(=O)(=O)c2ccc([N+](=O)[O-])cc2)CC1)N1CCOCC1 | 18.4 µM [rising, partial curve, poor fit] | 
38 | Cc1ccc(C(=O)CN2/C(=C(\O)c3ccccc3)C(=O)c3ccccc3S2(=O)=O)c(C)c1 | 0.708 µM [falling, full curve, poor fit] | 
39 | c1ccc(CCn2c(SCc3ccccc3)nnc2-c2ccncc2)cc1 | 9.2 µM [falling, partial curve, poor fit] | 
40 | CCCn1c(SCC(=O)c2cc(OC)ccc2OC)nnc1-c1ccco1 | 15.8 µM [falling, partial curve, poor fit] | 
41 | CCOC(=O)c1c(NC(=S)Nc2cccc(C)c2)sc2c1CC(C)(C)SC2 | 8.2 µM [falling, partial curve] | 
